Our source for the binding values is paper PMC10484675.

By UniProt entry, the sequences of proteins in these tests, tags left out. Where a name states a change or a piece, a line headed by the entry shows the natural chain unless it says otherwise.
UniProt Q3TQQ9: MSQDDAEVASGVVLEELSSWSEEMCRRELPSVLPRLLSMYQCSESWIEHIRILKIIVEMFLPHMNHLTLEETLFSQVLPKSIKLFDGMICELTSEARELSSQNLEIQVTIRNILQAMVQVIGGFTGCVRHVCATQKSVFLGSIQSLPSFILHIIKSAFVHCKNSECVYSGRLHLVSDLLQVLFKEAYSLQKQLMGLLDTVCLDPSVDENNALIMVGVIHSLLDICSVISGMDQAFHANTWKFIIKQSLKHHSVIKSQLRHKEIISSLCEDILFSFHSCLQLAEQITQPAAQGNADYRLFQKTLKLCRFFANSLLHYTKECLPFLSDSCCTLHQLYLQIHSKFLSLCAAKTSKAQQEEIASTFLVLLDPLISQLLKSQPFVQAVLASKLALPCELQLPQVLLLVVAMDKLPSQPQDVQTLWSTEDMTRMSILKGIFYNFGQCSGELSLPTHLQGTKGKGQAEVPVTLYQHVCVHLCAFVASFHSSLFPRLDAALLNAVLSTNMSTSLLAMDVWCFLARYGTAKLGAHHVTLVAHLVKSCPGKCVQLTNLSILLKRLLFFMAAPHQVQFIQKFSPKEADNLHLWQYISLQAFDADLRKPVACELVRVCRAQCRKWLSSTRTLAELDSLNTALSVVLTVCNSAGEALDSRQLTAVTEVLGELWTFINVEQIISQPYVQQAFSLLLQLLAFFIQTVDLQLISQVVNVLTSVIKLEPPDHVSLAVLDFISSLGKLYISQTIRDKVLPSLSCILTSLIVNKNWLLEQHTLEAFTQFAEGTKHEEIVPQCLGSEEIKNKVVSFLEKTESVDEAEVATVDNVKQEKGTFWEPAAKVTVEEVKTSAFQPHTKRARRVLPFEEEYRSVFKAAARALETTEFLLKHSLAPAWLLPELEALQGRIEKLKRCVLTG

No constants are given. Whether binding was seen depends on the method and setting. Binding can be weak; no strength is given. Sequences can lack the tags named with a protein. For part of these data: In cells and extracts the contact can be indirect.

For test [1], the target named is T1, DMC1 (mouse), N-terminally tagged (mouse) (UniProt Q61880).
T1 sequence: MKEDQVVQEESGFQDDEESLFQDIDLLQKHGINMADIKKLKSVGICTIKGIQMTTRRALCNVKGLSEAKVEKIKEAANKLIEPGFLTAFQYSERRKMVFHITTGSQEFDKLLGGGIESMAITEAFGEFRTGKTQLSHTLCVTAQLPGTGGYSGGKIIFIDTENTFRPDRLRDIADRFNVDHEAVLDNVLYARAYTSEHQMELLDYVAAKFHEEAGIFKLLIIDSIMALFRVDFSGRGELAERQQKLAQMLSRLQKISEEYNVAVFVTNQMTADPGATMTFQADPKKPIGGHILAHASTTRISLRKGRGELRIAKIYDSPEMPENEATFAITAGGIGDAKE
The test can be described thus: co-IP; 293T cells transiently transfected with N-terminally FLAG-, HA- or GFP-tagged mouse proteins, harvested after 24 h; lysis in 25 mM Tris-HCl pH 7.5, 300 mM NaCl, 1% Triton X-100, 1 mM DTT, 1 mM EDTA with sonication; antibody-conjugated agarose beads, 4°C, 4 h; Western blot. RAD51-FLIP co-precipitate strong with overexpressed FIGNL1, basal without exogenous FIGNL1. (In general: A western blot detects proteins with antibodies after separation by electrophoresis.)

In test [2] the target is T2, SWSAP1 (mouse), N-terminally tagged (mouse) (UniProt Q8VCI7).
T2 sequence: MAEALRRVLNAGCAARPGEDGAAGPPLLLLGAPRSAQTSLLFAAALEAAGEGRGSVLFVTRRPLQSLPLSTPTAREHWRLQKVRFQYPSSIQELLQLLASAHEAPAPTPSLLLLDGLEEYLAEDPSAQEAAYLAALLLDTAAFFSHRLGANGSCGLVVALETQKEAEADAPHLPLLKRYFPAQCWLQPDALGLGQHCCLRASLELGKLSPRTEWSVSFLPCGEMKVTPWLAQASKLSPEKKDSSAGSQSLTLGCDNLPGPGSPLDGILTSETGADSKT
Described as above.

In test [3] the target is FLAG-tagged wild-type FLIP (mouse) (mouse) (UniProt Q3TQQ9). The test is described as above.
Test [4] has as its target GST-FLIP (not stated (human or mouse cDNA cloned)) (UniProt Q3TQQ9). Briefly: pull-down; in vitro GST pull-down: 0.05 μg GST or GST-FLIP on glutathione agarose beads with 0.1 μg MBP, MBP-FIGNL1 or MBP-RAD51 in 800 μl NETN buffer (20 mM Tris HCl pH 8.0, 100 mM NaCl, 1 mM EDTA, 0.5% Nonidet P-40), 4°C, 30 min; immunoblot; both purified.

Take “FLAG-tagged wild-type FLIP (mouse) (from UniProt Q3TQQ9)”: the binding result in test [1] and in test [2] was “binds” in each case.

B1: FIGNL1-ΔN300 (mouse) (domain or fragment, UniProt Q8BPY9 301-683)
chain: LPTFKTAKEQLWVDQKKKGHQSQHTSKSSNGVMKKSLGAGRSRGIFGKFVPPVSNKQDGSEQHAKKHKSSRAGSAEPAHLTDDCLKNVEPRMVELIMNEIMDHGPPVHWDDIAGVEFAKATIKEIVVWPMMRPDIFTGLRGPPKGILLFGPPGTGKTLIGKCIASQSGATFFSISASSLTSKWVGEGEKMVRALFAVARCQQPAVIFIDEIDSLLSQRGDGEHESSRRIKTEFLVQLDGATTSSEDRILVVGATNRPQEIDEAARRRLVKRLYIPLPEASARKQIVGNLMSKEQCCLSDEETDLVVQQSDGFSGADMTQLCREASLGPIRSLHAADIATISPDQVRPIAYIDFENAFKTVRPTVSPKDLELYENWNETFGCGK
Regarding B1, the binding entry in test [3] was “no binding”.

B2: MBP-FIGNL1 (protein, UniProt Q8BPY9 1-683)
chain: METSSSMSVETTRSVQVDEWQKNYCVVTSSICTPKQKADAYRALLLHIQYAYANSEISQVFATNLFKRYTEKYSAIIDSDNVVTGLNNYAESIFALAGSRQADSNKWQSGLSIDNVFKMSCVQEMMQAGKKFEESLLEPADASVVLCKEPTAFEVPQLSVCGGSEDADILSSSGHDTDKTQAIPGSSLRCSPFQSARLPKETNTTKTCLTSSTSLGESATAAFHMTPLFGNTEKDTQSFPKTSTGLNMFLSNLSCVPSGCENPQERKAFNDSDIIDILSNPTLNKAPSKTEDRGRREDNSLPTFKTAKEQLWVDQKKKGHQSQHTSKSSNGVMKKSLGAGRSRGIFGKFVPPVSNKQDGSEQHAKKHKSSRAGSAEPAHLTDDCLKNVEPRMVELIMNEIMDHGPPVHWDDIAGVEFAKATIKEIVVWPMMRPDIFTGLRGPPKGILLFGPPGTGKTLIGKCIASQSGATFFSISASSLTSKWVGEGEKMVRALFAVARCQQPAVIFIDEIDSLLSQRGDGEHESSRRIKTEFLVQLDGATTSSEDRILVVGATNRPQEIDEAARRRLVKRLYIPLPEASARKQIVGNLMSKEQCCLSDEETDLVVQQSDGFSGADMTQLCREASLGPIRSLHAADIATISPDQVRPIAYIDFENAFKTVRPTVSPKDLELYENWNETFGCGK
For the molecule B2, in test [4], the binding result is on record as “binds”.

B3: FIGNL1 (mouse), N-terminally tagged (protein, UniProt Q8BPY9 1-683)
chain: METSSSMSVETTRSVQVDEWQKNYCVVTSSICTPKQKADAYRALLLHIQYAYANSEISQVFATNLFKRYTEKYSAIIDSDNVVTGLNNYAESIFALAGSRQADSNKWQSGLSIDNVFKMSCVQEMMQAGKKFEESLLEPADASVVLCKEPTAFEVPQLSVCGGSEDADILSSSGHDTDKTQAIPGSSLRCSPFQSARLPKETNTTKTCLTSSTSLGESATAAFHMTPLFGNTEKDTQSFPKTSTGLNMFLSNLSCVPSGCENPQERKAFNDSDIIDILSNPTLNKAPSKTEDRGRREDNSLPTFKTAKEQLWVDQKKKGHQSQHTSKSSNGVMKKSLGAGRSRGIFGKFVPPVSNKQDGSEQHAKKHKSSRAGSAEPAHLTDDCLKNVEPRMVELIMNEIMDHGPPVHWDDIAGVEFAKATIKEIVVWPMMRPDIFTGLRGPPKGILLFGPPGTGKTLIGKCIASQSGATFFSISASSLTSKWVGEGEKMVRALFAVARCQQPAVIFIDEIDSLLSQRGDGEHESSRRIKTEFLVQLDGATTSSEDRILVVGATNRPQEIDEAARRRLVKRLYIPLPEASARKQIVGNLMSKEQCCLSDEETDLVVQQSDGFSGADMTQLCREASLGPIRSLHAADIATISPDQVRPIAYIDFENAFKTVRPTVSPKDLELYENWNETFGCGK
B3: the binding result in test [3] is listed as “binds”.

B4: FIGNL1-ΔN150 (mouse) (domain or fragment, UniProt Q8BPY9 151-683)
chain: TAFEVPQLSVCGGSEDADILSSSGHDTDKTQAIPGSSLRCSPFQSARLPKETNTTKTCLTSSTSLGESATAAFHMTPLFGNTEKDTQSFPKTSTGLNMFLSNLSCVPSGCENPQERKAFNDSDIIDILSNPTLNKAPSKTEDRGRREDNSLPTFKTAKEQLWVDQKKKGHQSQHTSKSSNGVMKKSLGAGRSRGIFGKFVPPVSNKQDGSEQHAKKHKSSRAGSAEPAHLTDDCLKNVEPRMVELIMNEIMDHGPPVHWDDIAGVEFAKATIKEIVVWPMMRPDIFTGLRGPPKGILLFGPPGTGKTLIGKCIASQSGATFFSISASSLTSKWVGEGEKMVRALFAVARCQQPAVIFIDEIDSLLSQRGDGEHESSRRIKTEFLVQLDGATTSSEDRILVVGATNRPQEIDEAARRRLVKRLYIPLPEASARKQIVGNLMSKEQCCLSDEETDLVVQQSDGFSGADMTQLCREASLGPIRSLHAADIATISPDQVRPIAYIDFENAFKTVRPTVSPKDLELYENWNETFGCGK
As to B4, the binding result in test [3] was “no binding”.
